Source: patent publication US20100292153A1 (US Dept. of Health and Human Services, published 2010)
These are yes or no findings as the source states them, for the method shown. In cells and extracts the contact can be indirect. Some results given as binding are weak or reduced against the parent protein; the word gives no strength. For part of these data: Tags and fused reporters may be left off the sequences shown.

Sequences of proteins named here, by UniProt entry; tags and fusion partners are left off.
UniProt Q99836: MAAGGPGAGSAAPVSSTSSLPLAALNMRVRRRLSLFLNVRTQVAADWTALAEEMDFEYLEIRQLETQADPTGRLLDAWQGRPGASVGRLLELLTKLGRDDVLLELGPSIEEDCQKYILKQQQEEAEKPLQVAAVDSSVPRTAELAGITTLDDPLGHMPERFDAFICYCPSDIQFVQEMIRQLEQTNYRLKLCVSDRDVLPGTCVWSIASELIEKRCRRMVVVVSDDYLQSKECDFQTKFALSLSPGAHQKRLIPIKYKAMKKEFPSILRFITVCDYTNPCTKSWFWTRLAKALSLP
UniProt O43353: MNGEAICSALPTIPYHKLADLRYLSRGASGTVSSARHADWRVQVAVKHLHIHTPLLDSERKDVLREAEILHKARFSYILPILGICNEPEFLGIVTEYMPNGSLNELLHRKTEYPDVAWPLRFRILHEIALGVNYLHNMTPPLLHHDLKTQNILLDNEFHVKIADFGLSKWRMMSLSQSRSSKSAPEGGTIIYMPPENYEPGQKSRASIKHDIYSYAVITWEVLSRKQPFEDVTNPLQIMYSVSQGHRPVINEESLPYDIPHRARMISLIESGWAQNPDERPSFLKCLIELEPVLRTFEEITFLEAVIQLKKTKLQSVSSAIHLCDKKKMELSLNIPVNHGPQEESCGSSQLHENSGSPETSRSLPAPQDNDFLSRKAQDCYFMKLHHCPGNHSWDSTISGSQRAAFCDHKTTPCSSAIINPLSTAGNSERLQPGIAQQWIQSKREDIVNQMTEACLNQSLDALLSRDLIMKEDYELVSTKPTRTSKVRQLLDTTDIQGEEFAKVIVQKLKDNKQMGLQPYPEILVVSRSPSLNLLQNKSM

B1: FLAG-tagged human IRF4 (other, UniProt Q15306 1-451, looked up)
chain: MNLEGGGRGGEFGMSAVSCGNGKLRQWLIDQIDSGKYPGLVWENEEKSIFRIPWKHAGKQDYNREEDAALFKAWALFKGKFREGIDKPDPPTWKTRLRCALNKSNDFEELVERSQLDISDPYKVYRIVPEGAKKGAKQLTLEDPQMSMSHPYTMTTPYPSLPAQQVHNYMMPPLDRSWRDYVPDQPHPEIPYQCPMTFGPRGHHWQGPACENGCQVTGTFYACAPPESQAPGVPTEPSIRSAEALAFSDCRLHICLYYREILVKELTTSSPEGCRISHGHTYDASNLDQVLFPYPEDNGQRKNIEKLLSHLERGVVLWMAPDGLYAKRLCQSRIYWDGPLALCNDRPNKLERDQTCKLFDTQQFLSELQAFAHHGRSLPRFQVTLCFGEEFPDPQRQRKLITAHVEPLLARQLYYFAQQNSGHFLRGYDLPEHISNPEDYHRSIRHSSIQE
notes: Expressed by transfection in HEK293 cells; pulled down from whole cell lysates with anti-FLAG beads; it is entered under this molecule; also called IFN-regulatory factor 4; FLAG-tagged IRF4; not shown: FLAG tag
B2: endogenous IRF4 of human monocyte-derived DCs (protein, UniProt Q15306 1-451, looked up)
chain: B1 chain

What was measured:
[1] = molecular target: HA-tagged human MyD88 (human) (UniProt Q99836); test: co-immunoprecipitation from transfected HEK293 cells (anti-FLAG beads, anti-HA immunoblot)
[2] = molecular target: human RICK (untagged) (human) (UniProt O43353); test: co-immunoprecipitation from transfected HEK293 cells (anti-FLAG beads, anti-RICK immunoblot)
[3] = molecular target: human RICK (untagged) (human) (UniProt O43353); test: co-immunoprecipitation of endogenous proteins from human DC extracts (anti-IRF4 Ab IP, anti-RICK immunoblot)

| Binder | binding [1] | binding [2] | binding [3] |
| --- | --- | --- | --- |
| B1 | binds | binds | – |
| B2 | – | – | binds |
